Functional effect data for three sequences are collected here from patent US20160046943, “Interferon Production Using Short RNA Duplexes” (YALE UNIVERSITY, published 2016).

The target of this data set is T1, RIG-I (full length, pUNO-RIG-I in 293T) (UniProt O95786).
T1 sequence (looked up): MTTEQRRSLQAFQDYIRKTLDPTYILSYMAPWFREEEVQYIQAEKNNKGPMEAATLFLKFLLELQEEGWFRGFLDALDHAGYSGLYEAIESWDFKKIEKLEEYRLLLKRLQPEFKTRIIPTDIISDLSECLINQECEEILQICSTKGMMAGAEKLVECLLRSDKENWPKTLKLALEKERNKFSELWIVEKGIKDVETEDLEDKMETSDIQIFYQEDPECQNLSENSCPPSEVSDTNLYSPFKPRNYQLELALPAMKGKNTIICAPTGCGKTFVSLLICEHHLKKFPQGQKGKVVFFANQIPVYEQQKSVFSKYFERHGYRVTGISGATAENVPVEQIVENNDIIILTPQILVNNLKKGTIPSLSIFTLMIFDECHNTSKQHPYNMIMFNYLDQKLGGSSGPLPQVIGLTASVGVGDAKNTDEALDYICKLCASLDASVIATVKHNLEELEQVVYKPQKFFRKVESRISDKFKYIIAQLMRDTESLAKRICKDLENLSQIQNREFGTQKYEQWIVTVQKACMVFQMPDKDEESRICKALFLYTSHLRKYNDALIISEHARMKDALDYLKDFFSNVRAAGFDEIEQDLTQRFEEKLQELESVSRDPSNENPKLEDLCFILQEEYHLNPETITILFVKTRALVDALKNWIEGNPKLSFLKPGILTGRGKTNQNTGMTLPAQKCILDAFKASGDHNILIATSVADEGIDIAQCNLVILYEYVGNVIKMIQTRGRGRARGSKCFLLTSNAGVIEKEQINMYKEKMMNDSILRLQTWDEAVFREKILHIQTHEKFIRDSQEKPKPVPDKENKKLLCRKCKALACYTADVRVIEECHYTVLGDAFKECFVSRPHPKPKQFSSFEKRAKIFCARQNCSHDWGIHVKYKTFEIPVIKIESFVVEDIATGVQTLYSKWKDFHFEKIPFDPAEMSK
As to the kind of experiment: activity in cells. As to conditions: 5'-triphosphate, IFN-beta luciferase reporter in 293T, protein in cells, protein details: pUNO-RIG-I expression plasmid. Background: In a reporter assay the amount or activity of a reporter protein is the signal.

The mark [1] stands for this setting: comparable to positive controls.

Protein sequences can lack the tags named with them.

As for “GGAUCGAUCGAUCGAUCGGCUUCGGCCGAUCGAUCGAUCGAUCC [5'ppp20L]”, the functional effect entry under setting [1] is “active”.

For the sequence “GGAUCGAUCGAUCGAUCGGCAUCGAUCGGCUUCGGCCGAUCGAUGCCGAUCGAUCGAUCGAUCC [5'ppp30L]”, the functional effect entry under setting [1] was “active”.

In the case of “GGCGCGCGCGCGCGCGCGCGCC (double strand) [5'pppGC22]”, the functional effect entry (positive control) is on record as “active”.
